Assay results from US9018630B2, “Heterocyclic dinaphtho thieno thiophene (DNTT) compounds for use as organic semiconductor thin films in field effect transistors and related methods” (Nippon Kayaku Kabushiki Kaisha, priority 2011, dated 2015).

What was measured:
[1] = TC type field effect transistor on HMDS-SAM treated substrate, carrier mobility (Example 50); details: TC FET, substrate temperature during deposition 25° C. and 100° C., L=50 μm, W=2000 μm
Protocol: Using the compounds of this application synthesized in Examples 38 to 48, and the compound Ref-01 in Comparative Example 1, and the compound (2)-64, TC type field effect transistors were created by the same operation as that in Example 49 except that a substrate treated with HMDS-SAM was used, the substrate temperature during deposition was 25° C. and 100° C., L=50 μm, and W=2000 μm. The semiconductor properties of the obtained transistors were measured according to Example 49.

[2] = Top contact type field effect transistor, carrier mobility (Example 49 / Comparative Example 1); details: TC FET, octadecyltrichlorosilane treated 300 nm SiO2/n-doped Si, 50 nm vacuum deposited film, substrate temperature approximately 60° C.
Excerpt: An n-doped silicon wafer subjected to an octadecyltrichlorosilane treatment and having a 300 nm SiO2 thermal oxide film (surface resistance of 0.02 Ω·cm or less) was placed inside of a vacuum deposition apparatus, and the air in the apparatus was discharged until the degree of vacuum of the air reached 5.0×10^−3 Pa or less. Each of the compounds (1)-12, (1)-22, and (1)-31 was deposited onto an electrode to have a thickness of 50 nm by a resistance heating deposition method under the condition of a substrate temperature of approximately 60° C. Thereby, a semiconductor layer (2) was formed. Next, a shadow mask for creating an electrode was attached to this substrate. The substrate was placed inside of the vacuum deposition apparatus, and the air in the apparatus was discharged until the degree of vacuum of the air reached 1.0×10^−4 Pa or less. The gold electrodes, that is, the source electrode (1) and the drain electrode (3) were deposited by the resistance heating deposition method to have a thickness of 40 nm. Thereby, a TC (top contact) type field effect transistor of the present invention was obtained.
In the field effect transistor, the thermal oxide film in the n-doped silicon wafer having a thermal oxide film has the function of the insulator layer (4), and the n-doped silicon wafer has the functions of the substrate (6) and the gate electrode (5) (see FIG. 3).
The obtained field effect transistor was placed inside of a prober, and the semiconductor properties were measured using a semiconductor parameter analyzer 4155C (manufactured by Agilent Technologies, Inc.). For the semiconductor properties, the drain current-drain voltage was measured by scanning the gate voltage from 10 V to −100 V at 20 V steps, and scanning the drain voltage from 10 V to −100 V. Current saturation was observed.
Instead of the compound according to the present embodiment used in Example 49, DNTT (Ref-01), 3,10-DM-DNTT (Ref-02; a compound wherein R^1 in (1) was a methyl group), and 2,9-DM-DNTT (Ref-03; a compound wherein R^2 in (1) was a methyl group) were used, and TC type field effect transistors were obtained by the same operation as that in Example 49.

[3] = Heat resistance test of TC type field effect transistors (Example 51)
Protocol: Using the compound (1)-22 synthesized in Example 39 and the compound (2)-64 synthesized in Synthesis Example 14, TC type field effect transistors were created by the same operation as that in Example 49 except that a substrate treated with HMDS-SAM was used, the substrate temperature during deposition was 100° C., L=40 μm, and W=1500 μm. The obtained field effect transistors were subjected to a heat resistance test. Comparing the initial properties (μ=1.66 cm^2/Vs, Vth=−14 V, Ion/off˜10^9), the mobility was approximately 1.6 cm^2/Vs even after annealing at 100° C. and 150° C., and the values of these properties were kept approximately equal to the initial values thereof. The properties were improved, for example, Vth was shifted to a low potential side.

[4] = TC type field effect transistor, channel length dependency (Example 53); details: for channel length dependency of mobility: L=40 μm versus L=190 μm; for Mobility: channel width 1500 μm, substrate approximately 100° C., octadecyltrichlorosilane treated
Excerpt: An n-doped silicon wafer subjected to an octadecyltrichlorosilane treatment and having a 300 nm SiO2 thermal oxide film (surface resistance of 0.02 Ω·cm or less) was placed inside of a vacuum deposition apparatus, and the air in the apparatus was discharged until the degree of vacuum reached 5.0×10^−3 Pa or less. Each of the compounds (1)-12 and 2-(64) was deposited onto an electrode to have a thickness of 50 nm by the resistance heating deposition method under the condition of the substrate temperature of approximately 100° C. Thereby, a semiconductor layer (2) was formed. Next, a shadow mask for creating an electrode (channel width of 1500 μm) having a channel length L of 40 μm or 190 μm was attached to this substrate. The substrate was placed inside of the vacuum deposition apparatus, and the air in the apparatus was discharged until the degree of vacuum reached 1.0×10^−4 Pa or less. The gold electrodes, namely, the source electrode (1) and the drain electrode (3) were deposited by the resistance heating deposition method to have a thickness of 40 nm. Thereby, a TC (top contact) type field effect transistor of the present invention was obtained. […] Meanwhile, the compound (2)-64 having a substituent at 2,9-positions attained a transistor having the mobility 6.1 cm^2/Vs at L=190 μm, but the channel length dependency was remarkable.

[5] = Not annealed (initial), HMDS-SAM, substrate 100° C., L=40 μm, W=1500 μm
[6] = channel length L 190 (text: μm)

c1ccc2cc3c(cc2c1)sc1c2cc4ccccc4cc2sc31 [Ref-01, Dinaphtho[2,3-b:2′,3′-f]thieno[3,2-b]thiophene, reference compound]
Mobility [1]: 1.22 cm^2/Vs
Mobility [2]: 3.0 cm^2/Vs

Cc1ccc2cc3c(cc2c1)sc1c2cc4ccc(C)cc4cc2sc31 [Ref-03]
Mobility [2]: 0.2 cm^2/Vs

c1ccc(-c2ccc3cc4sc5c6cc7cc(-c8ccccc8)ccc7cc6sc5c4cc3c2)cc1 [(1)-22, 3,10-diphenyl dinaphtho[2,3-b:2′,3′-f]thieno[3,2-b]thiophene]
Mobility [1]: 4.04 cm^2/Vs
Ion/Ioff ([3]; Annealed (100° C.)): 1.0 × 10^9
Vth ([3]; Annealed (100° C.)): −8.8 V
μ ([3]; Annealed (100° C.)): 1.59 cm^2/Vs
Ion/Ioff ([3]; Annealed (150° C.)): 1.0 × 10^9
Vth ([3]; Annealed (150° C.)): −7.0 V
μ ([3]; Annealed (150° C.)): 1.62 cm^2/Vs
Vth ([3]; Not annealed (initial)): −14 V and −14.0 V
μ [3, 5]: 1.66 cm^2/Vs
mobility after annealing ([3]; after annealing at 100° C. and 150° C.): approximately 1.6 cm^2/Vs
Mobility [2]: 3.4 cm^2/Vs

Cc1ccc(-c2ccc3cc4sc5c6cc7cc(-c8ccc(C)cc8)ccc7cc6sc5c4cc3c2)cc1 [(1)-32, 2,9-ditolyldinaphtho[2,3-b:2′,3′-f]thieno[2,3-b]thiophene]
Mobility [1]: 2.09 cm^2/Vs

CCCCCCCCCCc1ccc2cc3sc4c5cc6cc(CCCCCCCCCC)ccc6cc5sc4c3cc2c1 [(1)-12, 3,10-didecyl dinaphtho[2,3-b:2′,3′-f]thieno[2,3-b]thiophene]
channel length dependency of mobility [4]: small
Ion/off ([4]; channel length L 40): 10^9
Vth ([4]; channel length L 40): −19 V
Mobility ([4]; channel length L 40 (text: μm)): 3.15 cm^2/Vs
Ion/off ([4]; channel length L 190): 10^8
Vth ([4]; channel length L 190): −17 V
Mobility [4, 6]: 3.56 cm^2/Vs
Mobility [1]: 3.98 cm^2/Vs
Mobility [2]: 8.0 cm^2/Vs

CCCCCCc1ccc2cc3c(cc2c1)sc1c2cc4ccc(CCCCCC)cc4cc2sc31 [(1)-08, 3,10-dihexyldinaphtho[2,3-b:2′,3′-f]thieno[2,3-b]thiophene]
Mobility [1]: 2.96 cm^2/Vs

CCCCCCCCCCc1ccc2cc3sc4c5cc6cc(CCCCCCCCCC)ccc6cc5sc4c3cc2c1 [(2)-64, 2,9-didecyldinaphtho[2,3-b:2′,3′-f]thieno[2,3-b]thiophene, reference compound]
channel length dependency of mobility [4]: remarkable
Ion/off ([4]; channel length L 40): 10^8
Vth ([4]; channel length L 40): −10 V
Mobility ([4]; channel length L 40 (text: μm)): 3.7 cm^2/Vs
Ion/off ([4]; channel length L 190): 10^9
Vth ([4]; channel length L 190): −5 V
Mobility [4, 6]: 6.1 cm^2/Vs
Ion/Ioff ([3]; Annealed (100° C.)): 1.0 × 10^9
Vth ([3]; Annealed (100° C.)): −1.0 V
μ ([3]; Annealed (100° C.)): 1.52 cm^2/Vs
Ion/Ioff ([3]; Annealed (150° C.)): 1.0 × 10^9
Vth ([3]; Annealed (150° C.)): 0.8 V
μ ([3]; Annealed (150° C.)): 0.77 cm^2/Vs
Ion/Ioff ([3]; Not annealed (initial)): 1.0 × 10^9
Vth ([3]; Not annealed (initial)): 0.2 V
μ [3, 5]: 1.96 cm^2/Vs
change of mobility on heating ([3]; at approximately 120° C.): reduced by half

CCCCCCCCCCCCc1ccc2cc3c(cc2c1)sc1c2cc4ccc(CCCCCCCCCCCC)cc4cc2sc31 [(1)-14, 3,10-didodecyldinaphtho[2,3-b:2′,3′-f]thieno[2,3-b]thiophene]
Mobility [1]: 3.78 cm^2/Vs

Cc1ccc(-c2ccc3cc4c(cc3c2)sc2c3cc5ccc(-c6ccc(C)cc6)cc5cc3sc42)cc1 [(1)-23, 3,10-ditolyldinaphtho[2,3-b:2′,3′-f]thieno[2,3-b]thiophene]
Mobility [1]: 1.78 cm^2/Vs

Cc1ccc2cc3sc4c5cc6cc(C)ccc6cc5sc4c3cc2c1 [Ref-02]
Mobility [2]: 0.2 cm^2/Vs

CCCCc1ccc2cc3c(cc2c1)sc1c2cc4ccc(CCCC)cc4cc2sc31 [(1)-04, 3,10-dibutyldinaphtho[2,3-b:2′,3′-f]thieno[2,3-b]thiophene]
Mobility [1]: 3.16 cm^2/Vs

CCCCCCCCc1ccc2cc3c(cc2c1)sc1c2cc4ccc(CCCCCCCC)cc4cc2sc31 [(1)-10, 3,10-dioctyldinaphtho[2,3-b:2′,3′-f]thieno[2,3-b]thiophene]
Mobility [1]: 3.22 cm^2/Vs

c1ccc(-c2ccc(-c3ccc4cc5sc6c7cc8cc(-c9ccc(-c%10ccccc%10)cc9)ccc8cc7sc6c5cc4c3)cc2)cc1 [(1)-33, 2,9-dibiphenyldinaphtho[2,3-b:2′,3′-f]thieno[2,3-b]thiophene]
Mobility [1]: 1.86* cm^2/Vs

c1ccc(-c2ccc3cc4sc5c6cc7cc(-c8ccccc8)ccc7cc6sc5c4cc3c2)cc1 [(1)-31, 2,9-diphenyl dinaphtho[2,3-b:2′,3′-f]thieno[3,2-b]thiophene]
Mobility [1]: 2.06 cm^2/Vs
Mobility [2]: 3.9 cm^2/Vs

Where “and” joins values, the source holds several entries; their conditions need not be identical. Equal entries are not always repeated. Marks after values point to notes of the source that are not given here.
